Test results published in paper PMC8118655.
No constants are given. Whether binding was seen depends on the method and setting. In cells and extracts the contact can be indirect. Here binding means that the protein was enriched with, or labelled near, the bait; the list need not be complete.

Chains of the proteins cited; added tags and fusions are not shown. Residues count along the entry.
UniProt O95714: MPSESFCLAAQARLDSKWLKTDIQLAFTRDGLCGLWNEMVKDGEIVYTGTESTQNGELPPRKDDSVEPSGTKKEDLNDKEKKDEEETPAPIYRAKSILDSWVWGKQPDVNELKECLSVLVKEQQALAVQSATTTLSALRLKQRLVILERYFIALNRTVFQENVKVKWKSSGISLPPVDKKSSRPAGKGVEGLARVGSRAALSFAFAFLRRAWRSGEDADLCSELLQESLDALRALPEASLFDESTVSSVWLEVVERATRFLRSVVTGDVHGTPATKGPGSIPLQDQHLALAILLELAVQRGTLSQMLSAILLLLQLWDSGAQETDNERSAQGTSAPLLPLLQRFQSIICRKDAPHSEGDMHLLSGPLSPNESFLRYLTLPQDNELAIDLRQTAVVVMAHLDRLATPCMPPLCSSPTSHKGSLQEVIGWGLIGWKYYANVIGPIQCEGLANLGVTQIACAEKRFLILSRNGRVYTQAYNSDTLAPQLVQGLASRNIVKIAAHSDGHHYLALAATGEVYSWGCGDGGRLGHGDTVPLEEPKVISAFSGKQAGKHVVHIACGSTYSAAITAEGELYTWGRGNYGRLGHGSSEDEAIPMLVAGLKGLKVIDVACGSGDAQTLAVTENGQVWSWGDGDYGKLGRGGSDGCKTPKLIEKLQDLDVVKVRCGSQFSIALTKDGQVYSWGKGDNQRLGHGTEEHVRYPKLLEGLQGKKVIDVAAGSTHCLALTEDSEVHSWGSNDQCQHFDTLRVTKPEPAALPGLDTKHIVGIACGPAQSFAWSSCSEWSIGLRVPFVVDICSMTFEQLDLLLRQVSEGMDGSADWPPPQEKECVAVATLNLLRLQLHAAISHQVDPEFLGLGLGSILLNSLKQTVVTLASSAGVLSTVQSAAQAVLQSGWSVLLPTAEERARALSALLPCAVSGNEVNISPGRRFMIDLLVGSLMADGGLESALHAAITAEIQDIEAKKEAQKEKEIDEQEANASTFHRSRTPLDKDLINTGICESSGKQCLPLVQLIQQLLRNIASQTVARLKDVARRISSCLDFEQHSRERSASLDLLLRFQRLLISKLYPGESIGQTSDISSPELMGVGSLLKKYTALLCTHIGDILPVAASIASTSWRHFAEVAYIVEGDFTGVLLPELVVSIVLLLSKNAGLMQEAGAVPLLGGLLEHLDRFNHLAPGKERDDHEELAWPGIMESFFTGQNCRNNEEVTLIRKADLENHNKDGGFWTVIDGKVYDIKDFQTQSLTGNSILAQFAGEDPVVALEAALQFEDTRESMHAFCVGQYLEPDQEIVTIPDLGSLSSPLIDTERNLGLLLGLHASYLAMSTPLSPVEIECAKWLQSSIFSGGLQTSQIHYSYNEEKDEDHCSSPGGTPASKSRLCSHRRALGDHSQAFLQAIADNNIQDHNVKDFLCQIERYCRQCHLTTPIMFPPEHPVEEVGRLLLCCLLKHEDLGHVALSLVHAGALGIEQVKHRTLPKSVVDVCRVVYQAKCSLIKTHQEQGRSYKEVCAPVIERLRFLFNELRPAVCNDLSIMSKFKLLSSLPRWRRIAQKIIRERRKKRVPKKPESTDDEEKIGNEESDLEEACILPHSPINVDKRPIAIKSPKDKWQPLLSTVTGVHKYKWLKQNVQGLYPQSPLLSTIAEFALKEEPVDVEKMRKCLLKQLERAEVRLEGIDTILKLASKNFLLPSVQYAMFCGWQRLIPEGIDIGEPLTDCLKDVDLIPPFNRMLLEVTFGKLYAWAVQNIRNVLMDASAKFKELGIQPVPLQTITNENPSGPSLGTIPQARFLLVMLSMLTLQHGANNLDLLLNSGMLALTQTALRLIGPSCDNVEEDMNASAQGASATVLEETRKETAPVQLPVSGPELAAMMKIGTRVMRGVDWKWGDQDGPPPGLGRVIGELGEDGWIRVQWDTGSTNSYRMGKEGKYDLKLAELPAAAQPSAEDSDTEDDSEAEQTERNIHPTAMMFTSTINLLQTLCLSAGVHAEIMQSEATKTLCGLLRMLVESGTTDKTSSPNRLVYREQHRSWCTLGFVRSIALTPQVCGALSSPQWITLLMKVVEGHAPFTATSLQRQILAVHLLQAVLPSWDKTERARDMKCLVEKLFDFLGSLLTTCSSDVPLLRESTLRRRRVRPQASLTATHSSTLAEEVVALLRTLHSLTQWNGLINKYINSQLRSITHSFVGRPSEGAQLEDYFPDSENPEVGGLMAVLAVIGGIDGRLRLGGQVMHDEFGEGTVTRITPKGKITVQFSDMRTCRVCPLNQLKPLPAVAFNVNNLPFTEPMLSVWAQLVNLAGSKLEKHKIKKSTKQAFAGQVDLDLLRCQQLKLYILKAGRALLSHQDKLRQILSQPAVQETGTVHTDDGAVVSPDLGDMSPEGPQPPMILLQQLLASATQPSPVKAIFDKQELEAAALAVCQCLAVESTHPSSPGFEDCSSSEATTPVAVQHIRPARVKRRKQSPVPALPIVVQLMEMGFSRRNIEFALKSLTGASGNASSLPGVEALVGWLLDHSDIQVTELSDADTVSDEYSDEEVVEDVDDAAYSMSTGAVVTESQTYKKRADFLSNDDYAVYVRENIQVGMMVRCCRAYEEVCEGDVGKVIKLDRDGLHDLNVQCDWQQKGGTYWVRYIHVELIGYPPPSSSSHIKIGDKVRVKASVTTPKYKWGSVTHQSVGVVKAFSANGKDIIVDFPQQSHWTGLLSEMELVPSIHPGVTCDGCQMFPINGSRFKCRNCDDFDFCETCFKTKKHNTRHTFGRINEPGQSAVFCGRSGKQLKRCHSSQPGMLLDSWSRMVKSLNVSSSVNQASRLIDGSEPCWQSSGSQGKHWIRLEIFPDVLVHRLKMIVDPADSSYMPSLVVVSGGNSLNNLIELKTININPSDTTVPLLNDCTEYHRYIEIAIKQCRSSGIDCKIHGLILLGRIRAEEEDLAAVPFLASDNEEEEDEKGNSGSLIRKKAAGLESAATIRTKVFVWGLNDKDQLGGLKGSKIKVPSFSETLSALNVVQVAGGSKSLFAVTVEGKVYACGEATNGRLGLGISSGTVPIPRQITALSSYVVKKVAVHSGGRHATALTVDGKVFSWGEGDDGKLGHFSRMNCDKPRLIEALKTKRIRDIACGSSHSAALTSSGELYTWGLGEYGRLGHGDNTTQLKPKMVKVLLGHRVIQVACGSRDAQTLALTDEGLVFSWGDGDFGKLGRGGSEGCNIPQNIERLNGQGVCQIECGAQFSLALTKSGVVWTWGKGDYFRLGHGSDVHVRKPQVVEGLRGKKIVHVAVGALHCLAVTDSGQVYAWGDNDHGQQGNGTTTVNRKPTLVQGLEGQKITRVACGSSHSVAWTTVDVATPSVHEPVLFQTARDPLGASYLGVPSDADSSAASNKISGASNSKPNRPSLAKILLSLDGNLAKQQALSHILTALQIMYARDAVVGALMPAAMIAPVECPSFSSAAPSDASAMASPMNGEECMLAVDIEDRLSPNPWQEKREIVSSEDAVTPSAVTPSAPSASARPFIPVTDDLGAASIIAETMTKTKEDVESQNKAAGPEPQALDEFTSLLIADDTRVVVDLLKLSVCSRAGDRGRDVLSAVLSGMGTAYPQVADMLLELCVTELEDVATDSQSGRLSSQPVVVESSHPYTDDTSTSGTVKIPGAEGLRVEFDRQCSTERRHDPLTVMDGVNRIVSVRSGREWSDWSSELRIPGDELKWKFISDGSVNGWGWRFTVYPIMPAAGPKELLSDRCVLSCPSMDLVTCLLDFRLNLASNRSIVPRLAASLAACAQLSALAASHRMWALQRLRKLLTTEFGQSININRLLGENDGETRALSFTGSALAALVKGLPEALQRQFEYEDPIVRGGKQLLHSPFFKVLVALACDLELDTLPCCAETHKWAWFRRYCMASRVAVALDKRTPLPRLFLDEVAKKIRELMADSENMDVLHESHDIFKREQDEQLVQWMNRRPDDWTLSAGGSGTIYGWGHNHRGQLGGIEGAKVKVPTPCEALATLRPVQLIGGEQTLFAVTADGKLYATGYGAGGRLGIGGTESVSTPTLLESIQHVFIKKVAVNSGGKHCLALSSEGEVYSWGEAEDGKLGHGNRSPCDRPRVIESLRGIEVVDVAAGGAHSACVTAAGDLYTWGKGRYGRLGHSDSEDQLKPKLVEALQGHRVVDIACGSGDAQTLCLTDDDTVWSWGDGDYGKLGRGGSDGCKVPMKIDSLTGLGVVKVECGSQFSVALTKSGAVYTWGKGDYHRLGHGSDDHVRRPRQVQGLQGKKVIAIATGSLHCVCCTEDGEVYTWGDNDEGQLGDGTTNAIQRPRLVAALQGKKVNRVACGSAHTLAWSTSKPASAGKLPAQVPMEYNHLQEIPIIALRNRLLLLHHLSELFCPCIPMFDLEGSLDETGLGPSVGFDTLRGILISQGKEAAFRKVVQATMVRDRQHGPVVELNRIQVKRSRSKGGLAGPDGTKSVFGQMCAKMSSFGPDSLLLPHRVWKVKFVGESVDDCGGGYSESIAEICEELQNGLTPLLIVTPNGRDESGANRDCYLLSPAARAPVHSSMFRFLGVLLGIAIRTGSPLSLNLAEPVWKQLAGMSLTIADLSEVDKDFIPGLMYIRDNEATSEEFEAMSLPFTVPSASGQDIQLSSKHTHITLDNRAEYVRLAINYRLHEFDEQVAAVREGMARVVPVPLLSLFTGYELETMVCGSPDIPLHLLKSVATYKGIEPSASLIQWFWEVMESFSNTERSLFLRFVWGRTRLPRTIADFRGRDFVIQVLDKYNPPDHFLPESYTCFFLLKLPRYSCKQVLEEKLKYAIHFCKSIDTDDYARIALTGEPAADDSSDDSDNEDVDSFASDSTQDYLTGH
UniProt Q13510, residues 22-395: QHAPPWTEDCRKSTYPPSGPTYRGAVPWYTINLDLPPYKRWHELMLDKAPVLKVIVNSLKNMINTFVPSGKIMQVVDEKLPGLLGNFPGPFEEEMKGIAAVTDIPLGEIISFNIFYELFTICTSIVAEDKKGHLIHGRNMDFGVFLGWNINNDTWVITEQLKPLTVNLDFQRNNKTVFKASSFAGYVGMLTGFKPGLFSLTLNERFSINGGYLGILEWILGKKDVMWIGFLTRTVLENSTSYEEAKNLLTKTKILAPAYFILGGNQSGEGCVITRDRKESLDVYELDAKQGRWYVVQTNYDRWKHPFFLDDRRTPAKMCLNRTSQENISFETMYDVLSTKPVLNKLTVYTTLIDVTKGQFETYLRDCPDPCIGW

Biological target: T1, ubiquitin domain-containing protein 1 (UBTD1) (human (endogenous in DU145)) (UniProt Q9HAC8)
T1 sequence: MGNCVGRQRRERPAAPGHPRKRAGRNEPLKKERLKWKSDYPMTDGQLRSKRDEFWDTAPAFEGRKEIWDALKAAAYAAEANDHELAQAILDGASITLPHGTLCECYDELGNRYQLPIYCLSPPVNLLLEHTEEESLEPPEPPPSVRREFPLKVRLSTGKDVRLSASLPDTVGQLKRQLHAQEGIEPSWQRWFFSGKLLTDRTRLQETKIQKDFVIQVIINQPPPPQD
Assay: affinity purification with mass spectrometry; immunoprecipitation of endogenous UBTD1 (bait) from DU145 lysate in mild stringency NP40 buffer; partners identified by LC-MS/MS

binding, binds:
E3 ligase HERC2 (from UniProt O95714 1-4834) (enzyme)
N-acylsphingosine amidohydrolase 1 (ASAH1), lysosomal ceramidase (from UniProt Q13510 22-395) (enzyme)
Sequestosome 1 (SQSTM1/p62) (from UniProt Q13501 1-440)
epidermal growth factor receptor (EGFR) (from UniProt P00533 25-1210)
